Measured values taken from PMC12370981.
No constants are given. Whether binding was seen depends on the method and setting. Binding seen in cells or lysates may run through a third protein. For some assays here: Where a sequence is shown, tags or fusion partners need not be part of it.

The chains behind the UniProt entries cited, without tags or fusion partners.
UniProt P60903: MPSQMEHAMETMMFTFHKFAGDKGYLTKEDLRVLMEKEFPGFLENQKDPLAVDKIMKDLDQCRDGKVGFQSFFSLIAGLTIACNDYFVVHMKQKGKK

T1: S100A11-FLAG (UniProt P31949)
T1 sequence: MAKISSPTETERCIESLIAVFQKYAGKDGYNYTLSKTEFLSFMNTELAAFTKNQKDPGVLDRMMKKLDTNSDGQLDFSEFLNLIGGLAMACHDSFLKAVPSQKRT


Assays:
S100A11-FLAG = target: T1, S100A11-FLAG; assay: co-IP; Huh7 lysate (200 ug protein) on Protein G Sepharose with anti-FLAG antibody or mouse IgG; lysis buffer 150 mM NaCl, 50 mM Tris-HCl pH 7.4, 1% Triton-X-100, 2 mM EDTA, 10 mM NaF; western blot for S100A10 and S100A11
S100A10-FLAG = S100A10-FLAG (UniProt P60903); assay: as above

| Molecule | binding (S100A11-FLAG) | binding (S100A10-FLAG) |
| --- | --- | --- |
| S100A10 (from UniProt P60903 1-97) | no binding |  |
| S100A11 (protein, UniProt P31949 1-105) MAKISSPTETERCIESLIAVFQKYAGKDGYNYTLSKTEFLSFMNTELAAFTKNQKDPGVLDRMMKKLDTNSDGQLDFSEFLNLIGGLAMACHDSFLKAVPSQKRT |  | no binding |
